From publication PMC5996148 come the findings set out here.

Some test systems named below: IRF5 (human); IRF6 (human); ITGB1BP3 (human); Importin-4 (human); Interleukin-22 (human); Interleukin-24 (human); Jouberin (human); KCNE1L (human); KCNIP1 (human); KCNIP2 (human); KCNK7 (human).
Holding throughout (experiment): protein microarray (ProtoArray v5.0), streptavidin-Alexa Fluor 647
What all share (conditions): 3'-biotin; 20 mM Tris (pH 7.5), 5 mM MgCl2, 100 mM KCl, 0.1% Tween-20, A/T-rich and random oligonucleotide blockers; temperature not stated; high values mean tight binding

A further experiment deals with ITM2B (UniProt Q9Y287).
In experiment [1] the test system is Inhibitor of growth protein 4 (human).
Experiment [2] relates to Interferon alpha-4 (human).
For experiment [3], the system named is Interferon-induced guanylate-binding protein 2 (human).
Experiment [4] concerns Interleukin-1 receptor antagonist protein (human).
Experiment [5] deals with Interleukin-18-binding protein (human).
Experiment [6] concerns JmjC domain-containing protein 4 (human).
In experiment [7] the test system is Junction plakoglobin (human).
Experiment [8] deals with Junctional adhesion molecule C (human).

“And” between values parts separate entries of the source, which are not always exact repeats. Equal values may be shown once. This is one part of the list. For some assays here: The exact form of the protein is not confirmed.

“GGGGACAGGGGTATGGGGAGGGG [G4-3 biotinylated (CtG)]”: the binding signal is -0.319 z-score in the experiment on IRF5 (human); -0.326 z-score in the experiment on IRF6 (human); -0.344 z-score in the experiment with ITGB1BP3 (human); -0.351 z-score in the experiment with ITM2B; -0.311 z-score with Importin-4 (human); -0.343 z-score in [1]. The binding signal in [2] was -0.329 z-score and -0.313 z-score; in [3] it was -0.339 z-score; in experiment [4], -0.304 z-score; in experiment [5] it was -0.331 z-score; in the experiment on Interleukin-22 (human), -0.32 z-score; in the experiment with Interleukin-24 (human), -0.325 z-score. Further, the binding signal in experiment [6] was -0.317 z-score; in the experiment on Jouberin (human), 3.49 z-score; in [7], -0.308 z-score; in experiment [8], -0.321 z-score; in the experiment with KCNE1L (human), -0.325 z-score; with KCNIP1 (human), -0.334 z-score. The binding signal is -0.33 z-score and -0.318 z-score and -0.343 z-score in the experiment on KCNIP2 (human); -0.318 z-score with KCNK7 (human).
